# Results reported in PubChem BioAssay AID463183 (Sanford-Burnham Center for Chemical Genomics, 2010).
# The list shows a part of the results. These are further read-outs of the screen, such as a control signal, another cell line or another target. No call is given for them. Most of these compounds were active or inconclusive in the main read-out, so they are no random draw.
# Experiment: hepatocyte lipid droplet accumulation inhibitors, confirmation, imaging, AML12 mouse hepatocytes, single concentration, high-content (AID 463183);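 note: cells counted after overnight compound exposure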
# Details: BODIPY lipid droplet imaging, measured here: cell count, cytotoxicity, at 5.2 µM, droplets induced with 100 µM oleic acid
row,Structure (SMILES),cell count [cells]
1,O=S1(=O)N=C(Oc2cccc3ccccc23)c2ccccc21,1580
2,O=C(CSc1nc2ccccc2o1)Nc1nc(-c2ccccc2)c(-c2ccccc2)s1,1680
3,COc1ccccc1N=Nc1c(C)[nH]n(-c2ccccc2)c1=O,1600
4,CCOc1ccc(CCNC(=O)/C=C/c2ccco2)cc1OCC,1590
5,COc1ccc(C(C(=O)NC(C)(C)C)N(Cc2ccco2)C(=O)CCC(=O)Nc2cc(C)on2)cc1 (centres undefined),1540
6,Cc1cccc(NC(=O)[C@H](C)NC(=O)[C@@H]2Cc3ccccc3CN2C(=O)OC(C)(C)C)c1,1580
7,Cc1c(S(=O)(=O)c2ccccn2)c(N)n(Cc2ccccc2)c1C,1540
8,COc1cc2c(cc1NC(=S)NC(=O)c1c(OC)cccc1OC)oc1ccccc12,1570
9,COc1ccc(C(=O)CCC(=O)Nc2ccc(N3CCCCC3)cc2)cc1OC,1630
10,CCCOc1ccc(C2=NNC(c3cccs3)=Nc3ccc(OC)cc32)cc1,1640
11,CC1CCCCN1Cc1c(O)ccc2c(=O)c(-c3ccccc3)coc12 (centres undefined),1550
12,CC(=O)Nc1ccc(-c2csc(NC(=O)Cc3ccccc3F)n2)cc1,1670
13,CCOc1ccc(CCNC(=O)Cn2cccc2C(=O)c2ccccc2C)cc1OCC,1560
14,Cc1cccc2sc(NC(=O)CN(C)S(=O)(=O)c3cccs3)nc12,1570
15,Cc1cc(C=O)c(O)cc1O,1590
16,COc1cc(CNC(=O)c2cccc(COc3ccc(Cl)cc3)c2)cc(OC)c1,1580
17,CCCN1C(=O)/C(=C\C=C2\N(CC)c3ccccc3C2(C)C)SC1=S,1610
18,CCCN1C(=O)/C(=C/c2c(N3CCNC(=O)C3CC(=O)OCC)nc3c(C)cccn3c2=O)SC1=S (centres undefined),1450
19,CCN1CCN(c2cc(C)c3cc(NC(=O)CCC(=O)Nc4ccc(OC)cc4OC)ccc3n2)CC1,1600
20,Cc1nc(Nc2ccc(O)cc2)c2c3c(sc2n1)CCCC3,1600

# A run of entries taken from the entries so far, as a working copy:
row,Structure (SMILES),cell count [cells]
2,O=C(CSc1nc2ccccc2o1)Nc1nc(-c2ccccc2)c(-c2ccccc2)s1,1680
3,COc1ccccc1N=Nc1c(C)[nH]n(-c2ccccc2)c1=O,1600

# (listing goes on)

row,Structure (SMILES),cell count [cells]
1,Cc1ccc(N=Nc2ccc3ccccc3c2O)cc1,1620
2,O=C(c1nn2c(C(F)(F)F)cc(-c3cccs3)nc2c1Cl)N1CCCc2ccccc21,1500
3,CCCN(CCC)c1ccc(CC(=O)NC(C)Cc2ccccc2)cc1 (centres undefined),1560
4,Cc1ccc2nc(=O)c(NNc3ccccc3)cnc2c1,1240
5,CCOc1cc(Br)c(CC(=O)NC2CCCCCC2)cc1OCC,1540
6,CCOc1ccc(CCNC(=O)Cn2nc(C)c3c(C)n(-c4ccccc4)nc3c2=O)cc1OCC,1620
7,CCc1cc2c(=O)c(-c3nc4ccccc4n3C)c(C)oc2c(CN2CCOCC2)c1O,1600
8,COc1ccccc1NS(=O)(=O)c1cc(NC(=O)c2cc3ccccc3oc2=O)ccc1C,1600
9,COc1ccc(CC(=O)Nc2oc(-c3ccccc3)c(-c3ccccc3)c2C#N)cc1OC,1530
10,CCN1C(=O)c2ccccc2Sc2ccc(C(=O)NCCC(C)C)cc21,1650
11,COc1ccccc1/C=N\Nc1ccccc1[N+](=O)[O-],1630
12,Cc1cc(-n2cnnn2)cc(C)c1S(=O)(=O)NCCOc1ccccc1,1600
13,CCOc1ccc(NS(=O)(=O)c2ccc(C(=O)N3CCCCC3)cc2)cc1,1630
14,COC(=O)c1ccc(-c2noc(CN(C)CC3CCCCO3)n2)cc1 (centres undefined),1540
15,COc1ccc(S(=O)(=O)N(CC(=O)N2CCCCCC2)c2ccccc2OC)cc1,1670
16,Cc1ccc(C(=O)Nc2ccccc2C(=O)NCc2cccnc2)cc1,1660
17,C=CCSc1n[nH]c(-c2ccc(OCCCC)cc2)n1,1600
18,COc1ccc2nc(N=Nc3c(O)ccc4ccccc34)sc2c1,1480
19,CC1=C(/C=N/Nc2ccc([N+](=O)[O-])cc2[N+](=O)[O-])C(C)(C)CCC1,1620
